{"source": "paper PMC7872032", "target": "T1, Flag-Pig-IRF3 (porcine) (UniProt Q764M6)", "T1 sequence": "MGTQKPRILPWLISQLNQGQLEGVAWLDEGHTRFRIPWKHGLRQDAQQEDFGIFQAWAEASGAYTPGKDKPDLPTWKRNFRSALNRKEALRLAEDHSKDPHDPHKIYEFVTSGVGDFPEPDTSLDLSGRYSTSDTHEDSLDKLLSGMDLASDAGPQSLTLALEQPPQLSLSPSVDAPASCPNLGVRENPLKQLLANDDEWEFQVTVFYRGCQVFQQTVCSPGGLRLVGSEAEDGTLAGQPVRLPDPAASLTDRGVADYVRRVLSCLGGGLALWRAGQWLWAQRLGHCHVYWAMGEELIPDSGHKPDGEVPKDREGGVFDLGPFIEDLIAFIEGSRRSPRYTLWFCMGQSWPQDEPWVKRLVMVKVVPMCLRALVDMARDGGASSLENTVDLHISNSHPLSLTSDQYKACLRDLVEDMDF", "assay": "co-IP; ST-EGFP-APPV-N^pro cells transfected with pCAGGS-Flag-Pig-IRF3 for 24 h (pCAGGS-Flag as negative control); lysis buffer 20 mM Tris-HCl, 300 mM NaCl, 2.5 mM MgCl2, 10% glycerol, 0.1% Nonidet P40; magnetic beads, 4 h at 4°C; western blot", "note": "These are yes or no findings as the source states them, for the method shown. Binding seen in cells or lysates may run through a third protein. Binding can be weak; no strength is given. Sequences can lack the tags named with a protein."}
{"substance": "EGFP-APPV-N^pro (atypical porcine pestivirus (APPV))", "values": [{"measurement": "binding", "result": "binds"}]}
